# In the supplement of paper PMC8732350:
# Where “and” joins values, the source holds several entries; their conditions need not be identical. Equal values may be shown once. Where a name gives a salt, the structure may show the parent alone. ± gives the standard deviation of the averaged measurements. The list shows a part of the results. Repeats in this data set agree poorly, so a single value says little.
# System: A549
# Test: surface PD-L1 immunofluorescence intensity relative to IFN-gamma-only control (ratio); higher = more PD-L1 expression
# Details: 10 µM; exposure time 24 h; IFN-gamma 100 ng/mL
row,Structure (SMILES),surface PD-L1 immunofluorescence intensity
1,C=CCc1cc(OC)c(O)c(C(=O)NCCO)c1 [Alibendol],1.17
2,CN(CCc1ccc(Cl)c(Cl)c1)CC(O)COc1ccc(NS(C)(=O)=O)cc1 (stereo unspecified),0.978 and 0.863
3,C#C[C@]1(O)CC[C@H]2[C@@H]3CCC4=CC(=O)CC[C@@H]4[C@H]3CC[C@@]21C [Norethindrone],0.828
4,C#C[C@]1(O)CC[C@H]2[C@@H]3CCC4=CC(=O)CC[C@@H]4[C@H]3CC[C@@]21C [Norethindrone (Norethisterone)],1.03
5,Nc1[nH]nc2nc3ccccc3nc12,1.02
6,Cc1cc2c(cc1C1(c3ccc(C(=O)O)cn3)CC1)C(C)(C)CCC2(C)C,0.98
7,C#C[C@]1(OC(C)=O)CC[C@H]2[C@@H]3CCC4=C[C@@H](OC(C)=O)CC[C@@H]4[C@H]3CC[C@@]21C [Ethynodiol diacetate],1.03 ± 0.089
8,N[C@H]1CCN(O)C1=O,1.09
9,CCOC(=O)C=Cc1ccc(O)c(OC)c1 [Ferulic acid ethylester],0.976
10,NC(=O)c1ccc2nc(-c3ccc(Oc4ccc(Cl)cc4)cc3)[nH]c2c1,1.02
11,COc1ccc([C@@H]2CNC(=O)C2)cc1OC1CCCC1 [(R)-(-)-Rolipram],0.98
12,Nc1ccc(S(=O)(=O)Nc2ncccn2)cc1 [Sulfadiazine],0.83
13,NS(=O)(=O)c1cc2c(cc1Cl)N=C(CSCc1ccccc1)NS2(=O)=O [Benzthiazide],1.05
14,Clc1ccc2c(c1)N=C(N1CCNCC1)c1ccccc1N2 [N-Desmethylclozapine],1.07
15,CC(=O)OC/C=C(C)/C=C/C=C(C)/C=C/C1=C(C)CCCC1(C)C [Retinyl acetate],0.937
16,O=C1C(CC[S+]([O-])c2ccccc2)C(=O)N(c2ccccc2)N1c1ccccc1 (stereo unspecified) [Sulfinpyrazone],0.867
17,O=C1NC(=O)/C(=C/c2ccc(-c3ccc(F)cc3O)o2)S1,0.979
18,"CCCn1c(=O)c2[nH]c(-c3ccccc3)nc2n(CCC)c1=O [1,3-Dipropyl-8-phenylxanthine]",1.01
19,COc1ccc(CCN(C)CCc2ccc(OC)c(OC)c2)cc1OC,0.982
20,COc1ccc(CCN(C)CCc2ccc(OC)c(OC)c2)cc1OC [YS-035 hydrochloride],1
21,CC(=O)O[C@]1(C(C)=O)CC[C@H]2[C@@H]3C=C(C)C4=CC(=O)CC[C@@H]4[C@H]3CC[C@@]21C [Nomegestrol acetate],1.03
22,NC(=O)c1noc([C@H](CCCC2CCCCC2)CC(=O)NO)n1,1.18
23,CC1(CN2CCC(n3c(=O)[nH]c4ccccc43)CC2)OCc2ccccc2-n2cccc21 (stereo unspecified),1.03
24,CC(C)Oc1cccc(-n2c(CCc3c[nH]c4ccc(Br)cc34)nc3ccccc3c2=O)c1,1.15
25,Cc1c(NC(=O)c2ccc(C(C)(C)C)cc2)cccc1-c1cn(C)c(=O)c(Nc2ccc(C(=O)N3CCOCC3)cc2)n1,1.08
26,O=C(O)Cc1ccccc1Nc1c(Cl)cccc1Cl [Diclofenac sodium],1.11

row,Structure (SMILES),surface PD-L1 immunofluorescence intensity
1,O=C(O)Cc1ccccc1Nc1c(Cl)cccc1Cl [Diclofenac Diethylamine],0.969
2,Cc1nn(C)c2nc(NNC(=O)Nc3cc(Cl)nc(Cl)c3)cc(C(C)C)c12,0.901
3,C[C@@H](c1ncncc1F)[C@](O)(Cn1cncn1)c1ccc(F)cc1F [Voriconazole],1.05
4,CN[C@@H](C)[C@H]1[C@H](O)C[C@@]2(C)[C@@H]3CC[C@H]4C(C)(C)[C@@H](NC)CC[C@@]45C[C@@]35CC[C@]12C [Cyclovirobuxin D (Bebuxine)],0.859
5,CN1CCN(CCCN2c3ccccc3Sc3ccc(S(=O)(=O)N(C)C)cc32)CC1 [Thioproperazine dimesylate],0.941
6,C[C@@H]1CC(=O)NN=C1c1ccc(NN=C(C#N)C#N)cc1 [Levosimendan],0.968
7,COc1ccc(-c2nc(C(=O)N3CCN(C)CC3)sc2-c2ccc(OC)cc2)cc1,0.994
8,CC(C)C(=O)SCCCCCCC(=O)Nc1nc(-c2ccccc2)cs1,0.965
9,CC(=O)Oc1cc(C(F)(F)F)ccc1C(=O)O [Triflusal],1.01
10,CNC(=O)c1ccc2cc([C@@]3(O)CCn4cncc43)ccc2c1 [TAK-700 (Orteronel)],1.12
11,O=C(O)CC/C=C\C[C@H]1CO[C@@H](c2ccccc2Cl)O[C@H]1c1ccccc1O,0.866
12,C[C@]12C=CC(=O)C=C1CC[C@@H]1[C@@H]2[C@@H](O)C[C@@]2(C)[C@H]1CC[C@]2(O)C(=O)CO [Prednisolone (Hydroretrocortine)],0.888
13,O=c1ncn2nc(Sc3ccc(F)cc3F)ccc2c1-c1c(Cl)cccc1Cl,0.995
14,CC(C)Cc1ccc([C@H](C)C(=O)O)cc1 [S-(+)-ibuprofen],0.996
15,Cc1cncc(CN2CCC(=C3c4ccc(Cl)cc4CCc4cccnc43)CC2)c1 [Rupatadine Fumarate],1.06
16,CS(=O)(=O)c1ccc([C@@H](O)[C@@H](CO)NC(=O)C(Cl)Cl)cc1 [Thiamphenicol],0.878
17,COc1[nH]c2ccc(F)cc2c1C(=O)OCC1CCN(CCNS(C)(=O)=O)CC1.NS(=O)(=O)O,1.08
18,CC1(C)CCC(c2ccc(Cl)cc2)=C(CN2CCN(c3ccc(C(=O)NS(=O)(=O)c4ccc(N[C@H](CCN5CCOCC5)CSc5ccccc5)c(S(=O)(=O)C(F)(F)F)c4)cc3)CC2)C1 [ABT-263 (Navitoclax)],1.12
19,CC(C)Cc1ccc(C(C)C(=O)NO)cc1 (stereo unspecified) [Ibuproxam],1
20,CCOC(=O)N1CCC(=C2c3ccc(Cl)cc3CCc3cccnc32)CC1 [Loratidine],1.06
21,CCOC(=O)N1CCC(=C2c3ccc(Cl)cc3CCc3cccnc32)CC1 [Loratadine],1.05
22,O=C(NOCC1CC1)c1ccc(F)c(F)c1Nc1ccc(I)cc1Cl,0.945
23,Nc1nc(F)nc2c1ncn2[C@@H]1O[C@H](COP(=O)(O)O)[C@@H](O)[C@@H]1O [Fludarabine Phosphate (Fludara)],1.05
24,CN1CCN(S(=O)(=O)c2ccc(-c3cnc(N)c(C(=O)Nc4cccnc4)n3)cc2)CC1,1.11
25,COc1ccc(CC(C)NCC(O)c2ccc(O)c(NC=O)c2)cc1 (stereo unspecified) [Formoterol fumarate],1.13
26,COc1ccc(CC(C)NCC(O)c2ccc(O)c(NC=O)c2)cc1 (stereo unspecified) [Formoterol hemifumarate],0.988

# Another view of part of the listing above.
row	Structure (SMILES)	surface PD-L1 immunofluorescence intensity
10	CNC(=O)c1ccc2cc([C@@]3(O)CCn4cncc43)ccc2c1 [TAK-700 (Orteronel)]	1.12
23	Nc1nc(F)nc2c1ncn2[C@@H]1O[C@H](COP(=O)(O)O)[C@@H](O)[C@@H]1O [Fludarabine Phosphate (Fludara)]	1.05
25	COc1ccc(CC(C)NCC(O)c2ccc(O)c(NC=O)c2)cc1 (stereo unspecified) [Formoterol fumarate]	1.13

# Later entries

row,Structure (SMILES),surface PD-L1 immunofluorescence intensity
1,O=C(OCCN1CCOCC1)C1(c2ccccc2)CCCCC1 [PRE-084 hydrochloride],1.04
2,CS(=O)(=O)c1ccc(C(=O)Nc2ccc(Cl)c(-c3ccccn3)c2)c(Cl)c1 [Vismodegib (GDC-0449)],1.07
3,O=C1N[C@H](C(=O)O)CS1 [Procysteine],1.01
4,C[C@H](N[C@@H](CCc1ccccc1)C(=O)O)C(=O)N1CCC[C@H]1C(=O)O [Enalaprilat dihydrate],1.02
5,NC(=O)N1CCC(CC(=O)N2CCC([C@H]3c4ncc(Br)cc4CCc4cc(Cl)cc(Br)c43)CC2)CC1,1.08
6,CN(C)[C@@H]1C(O)=C(C(N)=O)C(=O)[C@@]2(O)C(O)=C3C(=O)c4c(O)cccc4[C@@](C)(O)[C@H]3C[C@@H]12 [Tetracycline hydrochloride],0.954
7,CCCCC1CCC(c2nc(-c3ccncc3)no2)CC1 (stereo unspecified),1
8,COCCCC/C(=N\OCCN)c1ccc(C(F)(F)F)cc1 [Fluvoxamine maleate],1.05 ± 0.16
9,C[C@]12CCC(=O)C=C1CC[C@@H]1[C@@H]2C(=O)C[C@@]2(C)[C@H]1CC[C@]2(O)C(=O)CO [Cortisone],1.02
10,COC(=O)[C@H](c1ccccc1Cl)N1CCc2sccc2C1 [Clopidogrel (Plavix)],1.03
11,Cc1c(Cl)cccc1Nc1ccccc1C(=O)O [Tolfenamic acid],0.932
12,COc1cc(F)c(C(C)C)cc1-c1ccc(C(F)(F)F)cc1CN1C(=O)O[C@H](c2cc(C(F)(F)F)cc(C(F)(F)F)c2)[C@@H]1C [Anacetrapib (MK-0859)],1
13,"CO[C@H]1/C=C/O[C@@]2(C)Oc3c(C)c(O)c4c(O)c(c(/C=N/N5CCN(C)CC5)c(O)c4c3C2=O)NC(=O)/C(C)=C\C=C\[C@H](C)[C@H](O)[C@@H](C)[C@@H](O)[C@@H](C)[C@H](OC(C)=O)[C@@H]1C [Rifampin (Rifadin, Rimactane)]",1.1
14,CO[C@H]1/C=C/O[C@@]2(C)Oc3c(C)c(O)c4c(O)c(c(/C=N/N5CCN(C)CC5)c(O)c4c3C2=O)NC(=O)/C(C)=C\C=C\[C@H](C)[C@H](O)[C@@H](C)[C@@H](O)[C@@H](C)[C@H](OC(C)=O)[C@@H]1C [Rifampicin],1.03 ± 0.073
15,CC(Oc1ccc(O)cc1)(P(=O)(O)O)P(=O)(O)O,1.07 ± 0.052
16,Cc1ccc(N(CC2=NCCN2)c2cccc(O)c2)cc1 [Phentolamine HCl],1.02
17,Cc1ccc(N(CC2=NCCN2)c2cccc(O)c2)cc1 [Phentolamine hydrochloride],0.999
18,CC(C)(C)c1ccc(/C=C/C(=O)Nc2ccc3c(c2)OCCO3)cc1,0.96
19,CCc1ccc(CCOc2ccc(CC3SC(=O)NC3=O)cc2)nc1 (stereo unspecified) [Pioglitazone],0.91 ± 0.013
20,O=C(CCCCCCC(=O)Nc1cccnc1)NO [Pyroxamide],1.07
21,c1ccc(CC2=NCCN2)cc1 [Tolazoline hydrochloride],0.892
22,CC(C)(Oc1ccc(CCNC(=O)c2ccc(Cl)cc2)cc1)C(=O)O [Bezafibrate],0.981 ± 0.081
23,OCCN1CCN(CCCN2c3ccccc3Sc3ccc(C(F)(F)F)cc32)CC1 [Fluphenazine dihydrochloride],1.15
24,Clc1ccc2c(c1)C(N1CCNCC1)=Nc1ccccc1O2 [Amoxapine],0.96
